The values below come from doi:10.1101/2023.12.07.570498.

The assay deals with T1, ScVps53 (yeast two-hybrid fusion) (Saccharomyces cerevisiae) (UniProt P47061).
T1 sequence: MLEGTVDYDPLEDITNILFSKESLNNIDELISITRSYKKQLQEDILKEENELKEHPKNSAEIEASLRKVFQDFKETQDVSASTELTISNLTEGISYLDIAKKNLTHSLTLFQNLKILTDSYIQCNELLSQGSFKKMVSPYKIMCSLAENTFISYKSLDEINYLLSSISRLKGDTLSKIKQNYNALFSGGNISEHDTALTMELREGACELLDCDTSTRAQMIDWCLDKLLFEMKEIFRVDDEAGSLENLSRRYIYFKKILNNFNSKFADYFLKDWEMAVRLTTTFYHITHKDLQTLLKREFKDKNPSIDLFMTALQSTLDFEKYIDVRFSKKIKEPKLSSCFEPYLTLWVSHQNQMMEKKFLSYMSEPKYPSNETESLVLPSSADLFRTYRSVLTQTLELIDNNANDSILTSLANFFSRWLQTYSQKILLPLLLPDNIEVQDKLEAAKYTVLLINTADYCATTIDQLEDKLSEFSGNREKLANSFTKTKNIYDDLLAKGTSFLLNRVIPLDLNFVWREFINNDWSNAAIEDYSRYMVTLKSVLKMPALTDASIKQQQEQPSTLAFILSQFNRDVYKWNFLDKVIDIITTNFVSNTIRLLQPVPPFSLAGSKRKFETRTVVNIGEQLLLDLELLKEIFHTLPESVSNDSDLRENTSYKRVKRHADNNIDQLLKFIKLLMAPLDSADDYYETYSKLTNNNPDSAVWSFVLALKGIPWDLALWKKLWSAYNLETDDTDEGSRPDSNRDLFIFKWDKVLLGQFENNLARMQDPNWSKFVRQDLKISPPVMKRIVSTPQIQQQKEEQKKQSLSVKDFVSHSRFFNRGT
The experiment in a line: two-hybrid.

These are yes or no findings as the source states them, for the method shown. Some results given as binding are weak or reduced against the parent protein; the word gives no strength. Tags and fused reporters may be left off the sequences shown.

B1: ScVps35 (yeast two-hybrid fusion) (protein, UniProt P34110 1-944)
chain: MAYADSPENAIAVIKQRTALMNRCLSQHKLMESLQHTSIMLTELRNPNLSPKKYYELYVIIFDSLTNLSTYLIENHPQNHHLADLYELVQYTGNVVPRLYLMITVGTSYLTFNEAPKKEILKDMIEMCRGVQNPIRGLFLRYYLSQRTKELLPEDDPSFNSQFIMNNFIEMNKLWVRLQHQGPLRERETRTRERKELQILVGSQLVRLSQIIDDNFQMYKQDILPTILEQVIQCRDLVSQEYLLDVICQVFADEFHLKTLDTLLQTTLHLNPDVSINKIVLTLVDRLNDYVTRQLEDDPNATSTNAYLDMDVFGTFWDYLTVLNHERPDLSLQQFIPLVESVIVLSLKWYPNNFDNLNKLFELVLQKTKDYGQKNISLESEHLFLVLLSFQNSKLQLTSSTTAPPNSPVTSKKHFIFQLISQCQAYKNILALQSISLQKKVVNEIIDILMDREVEEMADNDSESKLHPPGHSAYLVIEDKLQVQRLLSICEPLIISRSGPPANVASSDTNVDEVFFNRHDEEESWILDPIQEKLAHLIHWIMNTTSRKQTMKNKIQFSLEAQLEILLLIKSSFIKGGINVKYTFPAIITNFWKLMRKCRMIQEYLLKKRPDNKTLLSHYSNLLKQMFKFVSRCINDIFNSCNNSCTDLILKLNLQCAILADQLQLNEISYDFFSQAFTIFEESLSDSKTQLQALIYIAQSLQKTRSLYKEAYYDSLIVRCTLHGSKLLKKQDQCRAVYLCSHLWWATEISNIGEEEGITDNFYRDGKRVLECLQRSLRVADSIMDNEQSCELMVEILNRCLYYFIHGDESETHISIKYINGLIELIKTNLKSLKLEDNSASMITNSISDLHITGENNVKASSNADDGSVITDKESNVAIGSDGTYIQLNTLNGSSTLIRGVVATASGSKLLHQLKYIPIHHFRRTCEYIESQREVDDRFKVIYV
For the molecule B1, the binding entry is recorded as “binds”.
